Reference: doi:10.1101/129551
Results are given in words; binding and its absence hold for the method and conditions named. In cells and extracts the contact can be indirect. Some results given as binding are weak or reduced against the parent protein; the word gives no strength.

Protein sequences, listed by entry. Tags and fused reporters are not part of them. Residues count along the entry.
UniProt P63044: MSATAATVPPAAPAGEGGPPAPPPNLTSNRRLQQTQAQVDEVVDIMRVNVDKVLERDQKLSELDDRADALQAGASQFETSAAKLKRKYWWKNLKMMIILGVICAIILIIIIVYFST
UniProt P05067, residues 672-713: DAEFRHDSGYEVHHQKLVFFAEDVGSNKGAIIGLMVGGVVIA

Assays:
[1] = biological target: synaptobrevin 2 (VAMP2), endogenous mouse (mouse (endogenous in cortical neurons and brain synaptosomes)) (UniProt P63044); assay: co-IP
β-amyloid peptide Aβ42 = β-amyloid peptide Aβ42 (UniProt P05067); assay: pull-down

B1: synaptogyrin 1 (SYNGR1), endogenous mouse (protein, UniProt O55100 1-234)
chain: MEGGAYGAGKAGGAFDPYTLVRQPHTILRVVSWVFSIVVFGSIVNEGYLNNPEEEEEFCIYNRNPNACSYGVTVGVLAFLTCLLYLALDVYFPQISSVKDRKKAVLSDIGVSAFWAFFWFVGFCFLANQWQVSKPKDNPLNEGTDAARAAIAFSFFSIFTWAGQAVLAFQRYQIGADSALFSQDYMDPSQDSSMPYAPYVEPSAGSDPAGMGGTYQHPANAFDAEPQGYQSQGY
With B1 the binding [1] was “binds” and the binding (β-amyloid peptide Aβ42) was “no binding”.
